From paper PMC11167181 come the findings set out here.

Results are given in words; binding and its absence hold for the method and conditions named. In cells and extracts the contact can be indirect. Binding can be weak; no strength is given.

For this assay, the target named is T1, peroxiredoxin 5 (mouse (endogenous in C2C12)) (UniProt P99029).
T1 sequence: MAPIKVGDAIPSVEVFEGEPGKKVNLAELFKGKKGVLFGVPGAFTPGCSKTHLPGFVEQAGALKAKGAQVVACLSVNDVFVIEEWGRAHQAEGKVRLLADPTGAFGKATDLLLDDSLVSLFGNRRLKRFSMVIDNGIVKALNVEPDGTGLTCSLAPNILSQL
The assay can be described thus: co-IP; C2C12 myotube lysates mixed with the indicated antibody and protein A/G-agarose beads, 4 h at 4°C; PRDX5 precipitated, Nrf2 and UNG1 detected by Western blotting; cells treated with TBHP with or without myricanol (MY).

In the case of UNG1 (from UniProt P97931-2), the binding result is reported as “binds”.
